# Measurements published in PubChem BioAssay AID652054 (National Center for Advancing Translational Sciences (NCATS), 2013).
# Sequences of proteins named here, by UniProt entry; tags and fusion partners are left off.
# UniProt P35462, whole entry, looked up: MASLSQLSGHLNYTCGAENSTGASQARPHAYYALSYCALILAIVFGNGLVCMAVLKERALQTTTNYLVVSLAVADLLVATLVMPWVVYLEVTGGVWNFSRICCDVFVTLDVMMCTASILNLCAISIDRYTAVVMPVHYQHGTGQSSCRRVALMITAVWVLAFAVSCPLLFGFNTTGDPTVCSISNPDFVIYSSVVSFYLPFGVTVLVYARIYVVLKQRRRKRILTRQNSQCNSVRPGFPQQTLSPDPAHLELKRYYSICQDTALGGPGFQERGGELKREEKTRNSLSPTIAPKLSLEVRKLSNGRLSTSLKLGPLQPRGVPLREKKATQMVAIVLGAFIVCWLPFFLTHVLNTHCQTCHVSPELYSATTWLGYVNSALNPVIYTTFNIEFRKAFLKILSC
# Among all 360,000 compounds or so, about 9,100 (2.5%) were called active. This list was built around the results that the source calls inconclusive (neither active nor inactive); the mix of calls is not that of the screen. Cut-off read from the data, not from the text of the source: active = max response below about -50%; inconclusive = no clear call, values can overlap the other calls; inactive = above that.
# Biological target: D(3) dopamine receptor (Homo sapiens) (UniProt P35462)
# Assay: qHTS of D3 Dopamine Receptor Antagonist: qHTS
# Conditions: D3R cells, DiscoveRx beta-arrestin luminescence, antagonist mode; stronger effect = lower value
# Procedure, shortened: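 Cells expressing the human receptor were seeded at 1500 cells/well, incubated overnight at 37 degrees C in 5% CO2, then exposed to library compounds with dopamine controls for 90 minutes at 37 degrees C before luminescent detection.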
# % is set by controls: 0 for no effect and ±100 for the full control effect.
row,Structure (SMILES),"max response, negative = inhibition"
1,COc1ccc(OCCN2CCOCC2)cc1,inactive: 8.86%
2,Cc1cc(F)ccc1C(O)c1ncc(-c2ccc3ccccc3c2)[nH]1 (stereo not drawn),inconclusive: -40%
3,C=CCc1ccccc1OCC(O)CN1CCN(c2ccc(OC)cc2)CC1 (stereo not drawn),active: -82%
4,O=C(c1coc2ccc(O)cc12)C1CC1,inconclusive: -38.8%
5,O=C(/C=C/c1ccc2ccccc2c1)c1ccoc1,inactive: 0%
6,COc1ccc(NC(=O)Cc2nnc(SCC(=O)NC3CCCCC3)n2C)cc1,inactive: -7.9%
7,COc1ccc(F)cc1C(=O)C1CCCN(Cc2ccc(Sc3nncn3C)o2)C1 (stereo not drawn),inconclusive: -42%
8,C#CCOc1c(/C=C\c2nc(O)c([N+](=O)[O-])c(=O)[nH]2)cc(Br)cc1OC,inconclusive: -38.5%
9,COc1cccc(C(=O)C2CCCN(C/C=C/c3ccccc3OC)C2)c1 (stereo not drawn),inactive: -6.74%
10,COc1cc(NC(=O)COC(=O)CCOc2ccc(C)cc2)cc(OC)c1,inactive: 23.4%
11,CCOc1ncccc1C(=O)Nc1ccc(S(=O)(=O)Nc2nc(C)cc(C)n2)cc1,inconclusive: -39.8%
12,C[C@H]1CN([C@@H](C)CO)C(=O)c2c(c3ccccc3n2C)-c2ccccc2CO[C@H]1CN(C)Cc1cccc(F)c1,inactive: 4.08%
13,C[C@H](O)[C@@H]1C(=O)N2CCc3c([nH]c4ccccc34)[C@@H]2C[C@@H]1N(C)C(=O)Nc1cc(Cl)cc(Cl)c1,inconclusive: -30%
14,CCN(CC)c1ccc2nc3ccc(N)cc3[n+](-c3ccccc3)c2c1,active: -56.3%
15,Cc1cc(C(F)F)n2nc(C(=O)Nc3cccc(C(F)(F)F)c3)nc2n1,inconclusive: -32.5%
16,CC(C)(C)C(=O)Cn1ncc(Br)c(Br)c1=O,inconclusive: -41.7%
17,O=C(NC1CCN(Cc2ccccc2)CC1)c1[nH]c(C(F)(F)F)nc1-c1ccccc1,inconclusive: -42.9%
18,Cc1ccc(-n2nnnc2SCC(=O)Nc2sccc2C#N)cc1,inconclusive: -33.5%
19,OC(COc1ccc2c(c1)CCC2)CN1CCN(c2ccccc2F)CC1 (stereo not drawn),inconclusive: -36.9%
20,CCOc1ccc(S(=O)(=O)/N=C(/Nc2ccc(C)c(S(=O)(=O)N3CCOCC3)c2)c2ccccc2)cc1,inconclusive: -34.8%
21,CCN(c1ccccc1)S(=O)(=O)c1cc(C(=O)Nc2ccc(Br)cc2)ccc1F,inconclusive: -32.2%
22,COc1ccc(/C=C/C(=O)OC(C)CN2CCOCC2)cc1 (stereo not drawn),inconclusive: -32.7%

row,Structure (SMILES),"max response, negative = inhibition"
1,O=C(NC(NNc1ccc([N+](=O)[O-])cc1)(C(F)(F)F)C(F)(F)F)c1ccccc1Cl,inconclusive: -44.1%
2,O=C(Nc1ccc2c(c1)CCO2)Nc1nnc([C@H]2C[C@H](O)[C@@H](CO)O2)s1,inconclusive: -33.5%
3,O=C(CN1CCC(NC(=O)Nc2ccc(F)cc2)CC1)Nc1ccccc1[N+](=O)[O-],inactive: 0.0159%
4,O=C(COC(=O)c1ccc2c(c1[N+](=O)[O-])C(=O)c1ccccc1C2=O)NC1CC1,active: -64%
5,CCc1ccc2nc(-c3cccc(C)c3)nc(SCC(=O)NCC3CCCO3)c2c1 (stereo not drawn),inactive: 10.7%
6,COc1ccc(CC2(CO)CCN(C(C)Cc3ccc(Cl)cc3)CC2)cc1 (stereo not drawn),inconclusive: -30.2%
7,CCOn1c(=O)c(C)[n+]([O-])c2ccccc21,inconclusive: -45%
8,COc1ccc(/C=C2/CCCC(CN(C)C)C2=O)cc1 (stereo not drawn),inconclusive: -40.1%
9,OC1c2cc(Cl)cc(Cl)c2N=C2CCCN21 (stereo not drawn),active: -59.3%
10,CN(C1CCCCC1)S(=O)(=O)c1ccc(C(=O)Nc2sc3c(c2C(N)=O)CC(C)(C)NC3(C)C)cc1,inconclusive: -31.6%
11,CSCCC(NC(=O)c1cccc([N+](=O)[O-])c1)C(=O)OCC(=O)N1CCCC1=O (stereo not drawn),inactive: -25.7%
12,O=c1cc(CO)oc(CN2CCN(c3cccc(C(F)(F)F)c3)CC2)c1O,active: -64.4%
13,O=C(c1ccc([N+](=O)[O-])o1)N1CCCCCC1,inconclusive: -31.9%
14,Brc1cccc(OCCCNC2CCCC2)c1,active: -91.3%
15,Cc1ccccc1NC(=S)N(CCCN1CCCCC1)Cc1ccco1,inconclusive: -31.6%
16,CN(Cc1nc(-c2ccccc2)no1)C(=O)c1ccc2c(c1)OCO2,active: -50.2%
17,CN(C)CCNC(=O)c1onc(CSc2ccncc2)c1C(=O)NCCN(C)C,inconclusive: -33.2%
18,NC(=O)c1nsc(C(=O)N(Cc2ccc(F)cc2)C(C(=O)NCC2CCCO2)c2ccc(F)cc2)c1N (stereo not drawn),inconclusive: -44.8%
19,S=C(c1ccc(-c2ccc(Cl)c(Cl)c2)o1)N1CCOCC1,inactive: 11.9%
20,CCCc1cc(-c2n[nH]c(=S)n2Cc2ccccc2)cs1,inconclusive: -44.9%
21,OCC1(Cc2ccc(Cl)cc2)CCN(Cc2ccc3nsnc3c2)CC1,inconclusive: -48.1%
22,COc1ccc(C2C3=C(CCCC3=O)NC3=C2C(=O)c2ccccc23)cc1 (stereo not drawn),inconclusive: -34.6%

row,Structure (SMILES),"max response, negative = inhibition"
1,O=C(NC(NC(=S)Nc1ccccc1C(=O)O)C(Cl)(Cl)Cl)c1ccco1 (stereo not drawn),inconclusive: -30.8%
2,Cc1ccc(Nc2nc(N)c(C#N)c(CC#N)c2C#N)cc1,inactive: -7.04%
3,CCOC(=O)N1CCC(NCCNC(=O)c2ccc(Cl)cc2)CC1,active: -73.9%
4,O=C1C=CC(=O)N1CCCCCCCCCCN1C(=O)C=CC1=O,active: -99.8%
5,CCn1c(CC(=O)Nc2cccc(OC)c2)nnc1SCC(=O)N1CCN(c2ccccc2)CC1,inconclusive: -39.9%
6,Cc1nnsc1S(=O)c1ccc(Cl)c(Cl)c1 (stereo not drawn),inconclusive: -43.9%
7,CCCS(=O)(=O)NC(=O)C1(C)CCCN(C(=O)C2(c3ccc(Cl)cc3)CCCC2)C1 (stereo not drawn),inconclusive: -33.7%
8,O=C(CSc1nnc(C2CC2)n1C1CC1)c1ccc(F)c(F)c1,inactive: -12.3%
9,COc1ccc2cc(C(=O)c3ccccc3)c(=O)oc2c1,inconclusive: -42.6%
10,O=C(O)c1cccc(-c2nnn(Cc3ccccc3Cl)n2)c1,inactive: -10.3%
11,C/C(=N\NC(=S)NCCc1ccccc1)c1ccc(Cl)cc1Cl,inconclusive: -37.2%
12,CC12CCC(C(=O)N3CCCc4ccccc43)(OC1=O)C2(C)C (stereo not drawn),inactive: 7.35%
13,CCOC(=O)COc1ccc(S(=O)(=O)c2ccc(OCC(=O)OCC)cc2)cc1,inactive: -21.7%
14,Cc1c(Cl)c(-c2n[nH]c(=S)n2Cc2ccco2)nn1C,active: -53.7%
15,CCOc1ccc(C2=C(C=C(C#N)C#N)C(c3ccccc3)c3ccccc3O2)cc1 (stereo not drawn),inconclusive: -30.1%
16,COc1ccc(-c2cc3ccccc3n2CC(O)CN2CCCCC2)cc1 (stereo not drawn),active: -87.2%
17,Cc1nc(C(=O)Nc2cccc(Cl)c2)nn1-c1cc(OC(C)C)c(Cl)cc1Cl,inconclusive: -32%
18,CN(CC(=O)Nc1ccc(OC(F)(F)F)cc1)C(=O)/C=C/c1cc2c(cc1[N+](=O)[O-])OCO2,active: -94.6%
19,COc1ccc(-c2nc(N)ncc2Oc2ccccc2Br)c(O)c1,inactive: 23.1%
20,Cc1ccc(NC(=S)NNC(=S)NNc2ccccc2)cc1C,inconclusive: -48%
21,Cc1ccc(-c2csc3n[nH]c(=S)n23)cc1,active: -100%
22,CCn1c(C)nc2cc(C(=O)NNC(=S)Nc3ccccc3Cl)ccc21,inconclusive: -40.8%

# 7 successive entries already listed:
row,Structure (SMILES),"max response, negative = inhibition"
13,CCOC(=O)COc1ccc(S(=O)(=O)c2ccc(OCC(=O)OCC)cc2)cc1,inactive: -21.7%
14,Cc1c(Cl)c(-c2n[nH]c(=S)n2Cc2ccco2)nn1C,active: -53.7%
15,CCOc1ccc(C2=C(C=C(C#N)C#N)C(c3ccccc3)c3ccccc3O2)cc1 (stereo not drawn),inconclusive: -30.1%
16,COc1ccc(-c2cc3ccccc3n2CC(O)CN2CCCCC2)cc1 (stereo not drawn),active: -87.2%
17,Cc1nc(C(=O)Nc2cccc(Cl)c2)nn1-c1cc(OC(C)C)c(Cl)cc1Cl,inconclusive: -32%
18,CN(CC(=O)Nc1ccc(OC(F)(F)F)cc1)C(=O)/C=C/c1cc2c(cc1[N+](=O)[O-])OCO2,active: -94.6%
19,COc1ccc(-c2nc(N)ncc2Oc2ccccc2Br)c(O)c1,inactive: 23.1%

# Remaining list, next part.

row,Structure (SMILES),"max response, negative = inhibition"
1,COc1ccccc1/C=C/C(=O)Nc1ccc2c(c1)CCC2,inconclusive: -42.1%
2,CC(C)(C)c1nnc(NC(=O)COc2ccc3c(c2)OCO3)s1,inconclusive: -45.9%
3,Clc1ccc(-c2csc(Nc3ccccc3)[n+]2Cc2ccco2)c(Cl)c1,inactive: 41%
4,NC(=S)NNc1cccc2cccnc12,inconclusive: -36.2%
5,CCc1nnc(NC(=O)C(C)N2C(=O)C3C4C=CC(C4)C3C2=O)s1 (stereo not drawn),inactive: 1.5%
6,CC(=O)Nc1ccc(-c2csc(-c3cccnc3)n2)cc1,inconclusive: -31.8%
7,Cc1nc(Oc2ccccc2)c2ccccc2n1,inactive: -12.2%
8,COc1cc(OC)c(CNC2CCCCCC2)cc1Br,active: -62.5%
9,O=C1C(=O)N(CCN2CCOCC2)C(c2ccccn2)/C1=C(/O)c1ccccc1 (stereo not drawn),inconclusive: -48.8%
10,CCOc1cc(C2Nc3ccccc3NC3=C2C(=O)CC(C)(C)C3)ccc1OC(C)=O (stereo not drawn),inactive: 10%
11,Cc1ccc(CSc2ccc(S(=O)(=O)N3CCCC3)cn2)cc1,inactive: -11.7%
12,O=C(CCCCn1c(=S)[nH]c2ccsc2c1=O)NCc1ccc2c(c1)OCO2,inconclusive: -33.7%
13,CCOC(=O)C1=C(C)N=C2c3ccccc3C(=O)C2C1c1ccc(Cl)cc1 (stereo not drawn),inconclusive: -33.7%
14,O=C(NCCCN1CCc2ccccc2C1)Nc1ccc(Cl)cc1,active: -91.5%
15,COc1cc(C=C2NC(=O)NC2=O)ccc1O,inconclusive: -39.1%
16,Cc1ccc(CN2CC(N3CCN(C)CC3)CS2(=O)=O)cc1 (stereo not drawn),active: -67.6%
17,CCOC(=O)c1cccc(NC(=O)c2cncc(Br)c2)c1,inactive: 17.1%
18,O=C1CCC(C(=O)NCCN2C(=O)S/C(=C\c3cccnc3)C2=O)=NN1,inconclusive: -34.5%
19,O=C(NCc1ccccc1)c1cc(C2CCCCN2C(=O)c2ccc3c(c2)CCO3)on1 (stereo not drawn),inactive: 22.4%
20,Cc1noc(C)c1S(=O)(=O)N(C)C[C@H]1Oc2ccc(NC(=O)Cc3ccccc3)cc2C(=O)N([C@H](C)CO)C[C@@H]1C,inactive: 0%
21,NC(Cc1ccc(F)cc1)c1csc(Nc2cc(NCc3ccco3)ncn2)n1 (stereo not drawn),inactive: 1.38%
22,Cc1ccc2nc(/C(C#N)=C\c3ccc(Oc4ccc(C(F)(F)F)cc4[N+](=O)[O-])cc3)[nH]c2c1,inconclusive: -33.6%
